Results published in the supplement of paper PMC11732987, “Enantioselective OTUD7B fragment discovery through chemoproteomics screening and high-throughput optimisation” (Communications Chemistry, 2025).
Some of the results follow. The data scatter; read single values as rough.

Protein sequences, listed by entry. Tags and fused reporters are not part of them. Lines headed by an entry give the natural chain unless they say otherwise; changes in a name come on top.
UniProt P63010: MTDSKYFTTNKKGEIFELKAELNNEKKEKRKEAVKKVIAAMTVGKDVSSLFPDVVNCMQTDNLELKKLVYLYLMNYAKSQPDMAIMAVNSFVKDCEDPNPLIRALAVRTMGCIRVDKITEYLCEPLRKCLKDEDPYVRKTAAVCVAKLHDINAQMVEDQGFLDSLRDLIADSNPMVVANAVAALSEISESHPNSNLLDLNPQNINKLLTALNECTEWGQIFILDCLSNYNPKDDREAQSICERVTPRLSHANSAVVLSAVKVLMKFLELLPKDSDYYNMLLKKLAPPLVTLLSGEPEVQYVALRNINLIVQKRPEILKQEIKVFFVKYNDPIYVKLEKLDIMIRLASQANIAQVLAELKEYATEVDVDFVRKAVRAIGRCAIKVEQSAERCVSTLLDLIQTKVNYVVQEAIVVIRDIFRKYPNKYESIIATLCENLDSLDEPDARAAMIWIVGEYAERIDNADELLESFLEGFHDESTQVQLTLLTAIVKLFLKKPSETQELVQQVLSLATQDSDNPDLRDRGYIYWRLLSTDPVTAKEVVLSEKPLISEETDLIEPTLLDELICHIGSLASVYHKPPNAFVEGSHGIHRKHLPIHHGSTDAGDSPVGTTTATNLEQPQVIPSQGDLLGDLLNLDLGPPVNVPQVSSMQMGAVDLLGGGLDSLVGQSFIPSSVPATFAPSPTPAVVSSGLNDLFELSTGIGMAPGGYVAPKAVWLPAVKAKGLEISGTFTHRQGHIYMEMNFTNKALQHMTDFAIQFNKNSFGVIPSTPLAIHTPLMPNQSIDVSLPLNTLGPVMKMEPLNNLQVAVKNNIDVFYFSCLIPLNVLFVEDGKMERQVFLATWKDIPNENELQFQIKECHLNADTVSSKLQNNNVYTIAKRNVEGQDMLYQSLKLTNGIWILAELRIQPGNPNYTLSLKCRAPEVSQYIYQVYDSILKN
UniProt O75179: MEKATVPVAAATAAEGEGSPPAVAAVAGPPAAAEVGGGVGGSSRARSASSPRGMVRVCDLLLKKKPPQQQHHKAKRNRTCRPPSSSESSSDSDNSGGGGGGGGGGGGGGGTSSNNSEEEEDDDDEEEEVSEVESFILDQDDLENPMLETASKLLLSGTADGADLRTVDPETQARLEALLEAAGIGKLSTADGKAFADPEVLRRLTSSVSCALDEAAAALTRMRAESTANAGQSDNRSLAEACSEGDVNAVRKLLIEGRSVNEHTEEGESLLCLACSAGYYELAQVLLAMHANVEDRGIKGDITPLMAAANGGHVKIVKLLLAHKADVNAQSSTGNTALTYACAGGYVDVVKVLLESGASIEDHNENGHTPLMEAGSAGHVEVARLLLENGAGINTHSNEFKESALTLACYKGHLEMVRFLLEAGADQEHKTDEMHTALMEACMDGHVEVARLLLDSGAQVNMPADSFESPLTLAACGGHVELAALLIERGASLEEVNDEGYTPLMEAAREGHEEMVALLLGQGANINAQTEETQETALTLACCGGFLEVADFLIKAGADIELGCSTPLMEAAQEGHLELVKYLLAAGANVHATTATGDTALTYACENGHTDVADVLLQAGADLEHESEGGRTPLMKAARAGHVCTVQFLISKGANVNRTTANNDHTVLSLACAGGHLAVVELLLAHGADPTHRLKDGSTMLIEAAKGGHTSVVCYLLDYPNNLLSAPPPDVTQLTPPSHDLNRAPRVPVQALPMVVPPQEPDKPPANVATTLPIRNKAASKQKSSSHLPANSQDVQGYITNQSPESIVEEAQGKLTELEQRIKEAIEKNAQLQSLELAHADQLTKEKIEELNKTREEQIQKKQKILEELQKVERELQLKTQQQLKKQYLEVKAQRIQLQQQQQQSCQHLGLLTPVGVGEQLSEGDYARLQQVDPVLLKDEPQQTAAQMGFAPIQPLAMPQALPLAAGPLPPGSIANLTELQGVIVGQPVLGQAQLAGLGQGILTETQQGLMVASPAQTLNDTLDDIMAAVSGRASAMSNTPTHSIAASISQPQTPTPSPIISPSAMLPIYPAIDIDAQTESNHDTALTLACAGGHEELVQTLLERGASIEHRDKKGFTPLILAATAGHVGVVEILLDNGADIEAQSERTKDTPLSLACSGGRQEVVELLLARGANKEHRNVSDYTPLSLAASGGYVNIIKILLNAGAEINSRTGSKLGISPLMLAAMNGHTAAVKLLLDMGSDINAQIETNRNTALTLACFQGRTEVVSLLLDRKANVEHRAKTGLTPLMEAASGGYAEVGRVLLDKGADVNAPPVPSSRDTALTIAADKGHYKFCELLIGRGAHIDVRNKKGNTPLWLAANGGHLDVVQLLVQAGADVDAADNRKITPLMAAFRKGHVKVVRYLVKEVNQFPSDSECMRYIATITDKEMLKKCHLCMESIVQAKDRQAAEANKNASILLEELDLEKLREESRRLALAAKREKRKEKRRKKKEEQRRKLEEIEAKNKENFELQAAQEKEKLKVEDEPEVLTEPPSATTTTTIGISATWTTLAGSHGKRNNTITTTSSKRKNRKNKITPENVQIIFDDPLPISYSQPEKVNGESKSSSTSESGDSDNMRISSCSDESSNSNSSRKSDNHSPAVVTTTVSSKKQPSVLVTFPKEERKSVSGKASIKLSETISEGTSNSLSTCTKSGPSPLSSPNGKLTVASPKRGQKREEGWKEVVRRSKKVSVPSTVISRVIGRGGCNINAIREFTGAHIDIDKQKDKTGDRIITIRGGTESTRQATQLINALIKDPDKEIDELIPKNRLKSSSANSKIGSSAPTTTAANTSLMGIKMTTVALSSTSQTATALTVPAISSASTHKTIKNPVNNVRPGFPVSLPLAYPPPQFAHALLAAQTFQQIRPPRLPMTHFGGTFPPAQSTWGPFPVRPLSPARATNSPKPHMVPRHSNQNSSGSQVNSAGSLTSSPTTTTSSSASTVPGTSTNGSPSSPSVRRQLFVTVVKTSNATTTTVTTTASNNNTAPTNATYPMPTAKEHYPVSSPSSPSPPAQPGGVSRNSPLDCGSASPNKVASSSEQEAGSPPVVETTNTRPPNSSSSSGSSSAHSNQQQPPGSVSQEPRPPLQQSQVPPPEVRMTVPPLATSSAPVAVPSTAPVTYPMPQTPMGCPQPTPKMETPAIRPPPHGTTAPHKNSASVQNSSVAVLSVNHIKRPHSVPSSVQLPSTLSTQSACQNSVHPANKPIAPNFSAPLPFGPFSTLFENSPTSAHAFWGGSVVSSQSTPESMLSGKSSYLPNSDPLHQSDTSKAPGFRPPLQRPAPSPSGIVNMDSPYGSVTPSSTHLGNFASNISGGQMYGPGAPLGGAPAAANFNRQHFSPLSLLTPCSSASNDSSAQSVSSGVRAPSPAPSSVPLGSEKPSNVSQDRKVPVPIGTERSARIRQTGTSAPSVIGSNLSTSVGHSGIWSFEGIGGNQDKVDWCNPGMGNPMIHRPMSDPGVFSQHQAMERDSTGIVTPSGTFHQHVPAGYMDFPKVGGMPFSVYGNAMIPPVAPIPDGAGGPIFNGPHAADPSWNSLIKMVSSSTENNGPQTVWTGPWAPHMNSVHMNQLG
UniProt O95671: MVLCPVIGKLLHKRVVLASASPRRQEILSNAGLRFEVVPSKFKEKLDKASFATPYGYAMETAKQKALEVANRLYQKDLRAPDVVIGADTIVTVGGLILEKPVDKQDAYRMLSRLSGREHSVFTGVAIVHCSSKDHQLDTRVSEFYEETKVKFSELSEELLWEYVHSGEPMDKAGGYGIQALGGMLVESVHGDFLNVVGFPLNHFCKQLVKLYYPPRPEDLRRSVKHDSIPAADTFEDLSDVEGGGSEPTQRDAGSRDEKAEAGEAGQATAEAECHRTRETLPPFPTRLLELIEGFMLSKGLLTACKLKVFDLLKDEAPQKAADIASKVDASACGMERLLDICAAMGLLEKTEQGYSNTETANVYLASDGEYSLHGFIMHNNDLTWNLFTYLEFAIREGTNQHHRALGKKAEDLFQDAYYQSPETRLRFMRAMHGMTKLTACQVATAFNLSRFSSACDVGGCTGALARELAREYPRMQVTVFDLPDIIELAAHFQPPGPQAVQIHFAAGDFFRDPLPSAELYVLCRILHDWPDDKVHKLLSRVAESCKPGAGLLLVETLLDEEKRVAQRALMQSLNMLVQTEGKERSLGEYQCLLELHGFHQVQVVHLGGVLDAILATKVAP
UniProt Q9BZZ5: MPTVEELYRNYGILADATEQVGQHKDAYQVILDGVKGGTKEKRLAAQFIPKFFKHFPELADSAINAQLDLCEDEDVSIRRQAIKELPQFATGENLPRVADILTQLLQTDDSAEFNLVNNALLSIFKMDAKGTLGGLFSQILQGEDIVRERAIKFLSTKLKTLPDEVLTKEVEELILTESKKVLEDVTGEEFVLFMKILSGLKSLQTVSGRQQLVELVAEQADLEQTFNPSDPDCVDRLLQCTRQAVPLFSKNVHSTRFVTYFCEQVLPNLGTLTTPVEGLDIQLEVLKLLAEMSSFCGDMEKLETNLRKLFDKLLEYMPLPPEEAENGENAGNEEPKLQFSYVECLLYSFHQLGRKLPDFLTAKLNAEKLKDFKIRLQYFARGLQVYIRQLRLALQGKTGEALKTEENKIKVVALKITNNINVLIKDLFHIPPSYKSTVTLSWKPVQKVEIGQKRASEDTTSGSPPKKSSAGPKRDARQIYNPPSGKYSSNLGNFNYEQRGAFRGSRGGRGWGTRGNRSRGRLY
UniProt Q8NB46: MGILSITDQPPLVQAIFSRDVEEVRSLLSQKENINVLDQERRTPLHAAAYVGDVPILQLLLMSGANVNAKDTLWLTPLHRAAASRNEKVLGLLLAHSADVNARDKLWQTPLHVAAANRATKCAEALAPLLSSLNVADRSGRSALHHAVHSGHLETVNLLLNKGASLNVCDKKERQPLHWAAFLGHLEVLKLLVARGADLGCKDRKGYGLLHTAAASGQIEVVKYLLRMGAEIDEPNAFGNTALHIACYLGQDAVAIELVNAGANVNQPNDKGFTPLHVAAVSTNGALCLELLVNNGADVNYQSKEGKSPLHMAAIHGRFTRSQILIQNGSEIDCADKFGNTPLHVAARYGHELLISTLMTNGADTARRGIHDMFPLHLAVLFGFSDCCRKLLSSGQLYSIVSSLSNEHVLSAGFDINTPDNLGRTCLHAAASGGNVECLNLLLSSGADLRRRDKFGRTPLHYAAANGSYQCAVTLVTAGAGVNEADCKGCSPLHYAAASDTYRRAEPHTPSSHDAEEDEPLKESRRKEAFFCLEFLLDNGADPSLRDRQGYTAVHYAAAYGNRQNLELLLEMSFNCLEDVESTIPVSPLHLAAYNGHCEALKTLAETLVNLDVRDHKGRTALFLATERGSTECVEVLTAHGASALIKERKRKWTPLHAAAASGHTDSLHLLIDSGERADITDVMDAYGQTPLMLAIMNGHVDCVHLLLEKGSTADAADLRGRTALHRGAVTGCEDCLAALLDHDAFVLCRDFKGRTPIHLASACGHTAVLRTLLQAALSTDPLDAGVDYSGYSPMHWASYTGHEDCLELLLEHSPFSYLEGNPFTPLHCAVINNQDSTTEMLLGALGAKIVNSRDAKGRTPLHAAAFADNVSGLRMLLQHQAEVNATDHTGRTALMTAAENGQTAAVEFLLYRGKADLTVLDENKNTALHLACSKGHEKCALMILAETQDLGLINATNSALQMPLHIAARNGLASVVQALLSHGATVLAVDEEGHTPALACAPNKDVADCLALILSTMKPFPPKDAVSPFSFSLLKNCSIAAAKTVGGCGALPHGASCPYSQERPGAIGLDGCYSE
UniProt P27540: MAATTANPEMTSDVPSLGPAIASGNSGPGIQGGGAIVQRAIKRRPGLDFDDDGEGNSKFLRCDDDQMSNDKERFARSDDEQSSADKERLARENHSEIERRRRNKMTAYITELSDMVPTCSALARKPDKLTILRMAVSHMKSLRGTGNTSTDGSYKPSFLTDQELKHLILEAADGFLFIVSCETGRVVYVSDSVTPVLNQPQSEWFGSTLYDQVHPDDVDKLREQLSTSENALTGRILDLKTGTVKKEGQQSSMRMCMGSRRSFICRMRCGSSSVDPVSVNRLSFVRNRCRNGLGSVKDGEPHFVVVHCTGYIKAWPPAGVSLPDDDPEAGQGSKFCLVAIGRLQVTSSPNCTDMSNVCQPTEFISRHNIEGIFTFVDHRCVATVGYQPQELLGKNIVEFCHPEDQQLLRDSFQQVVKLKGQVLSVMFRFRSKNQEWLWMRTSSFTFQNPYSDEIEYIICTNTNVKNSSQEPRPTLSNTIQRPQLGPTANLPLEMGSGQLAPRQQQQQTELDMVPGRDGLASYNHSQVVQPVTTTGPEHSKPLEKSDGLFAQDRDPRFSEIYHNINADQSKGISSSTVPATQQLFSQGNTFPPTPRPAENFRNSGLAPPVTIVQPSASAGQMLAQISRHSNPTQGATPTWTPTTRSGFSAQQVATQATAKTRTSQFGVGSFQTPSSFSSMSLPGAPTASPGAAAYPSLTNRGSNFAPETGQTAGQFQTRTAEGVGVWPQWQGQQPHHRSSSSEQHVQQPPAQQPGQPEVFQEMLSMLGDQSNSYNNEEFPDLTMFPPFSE

Columns and labels:
[1] = compound: ClCC(=O)N[C@@H]1CCCc2ccccc12; experiment: log2 mean competition ratio of IA-DTB cysteine labelling (DMSO/compound) (log2 ratio); higher = stronger cysteine engagement by compound; conditions: treatment time: 4 h, cell line lysate: HEK293T
Description: (§1)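 IA-DTB competitive cysteine chemoproteomics in HEK293T RIPA lysate. Lysates were treated with compound 29 or 30 at 50 or 200 µM for 4 h, then IA-DTB (500 µM, 1 h), trypsin-digested, NeutrAvidin-enriched and analysed by diaPASEF. Competition ratio = intensity DMSO / intensity compound (n=4 treated, n=64 DMSO); binding: mean log2 CR ≥ 1 and p ≤ 0.05 plus QC filters. Target is the cysteine site.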

[2] = compound: ClCC(=O)N[C@H]1CCCc2ccccc12; experiment: as above; conditions: treatment time: 4 h, cell line lysate: HEK293T
Description: as §1

Row | Target | log2 mean competition ratio ([1]; 50 µM) | log2 mean competition ratio ([1]; 200 µM) | log2 mean competition ratio ([2]; 50 µM) | log2 mean competition ratio ([2]; 200 µM)
1 | AP2B1 C129 (UniProt P63010) | 0.441 | 0.202 | 0.183 | 0.163
2 | ARMC6 C484 (UniProt Q6NXE6) | -0.0109 | 0.0522 | 0.281 | 0.0829
3 | ANKRD17 C242 (UniProt O75179) | -0.0421 | -0.326 | 0.139 | 0.0074
4 | ARFRP1 C141 (UniProt Q13795) | -0.0676 | -0.235 | 0.0468 | 0.0897
5 | ASMTL C274 (UniProt O95671) | -0.213 | -0.0538 | -0.144 | -0.0622
6 | ARHGEF18 C918 (UniProt Q6ZSZ5) | 0.165 | 0.204 | -0.0852 | 0.0106
7 | ANXA11 C226 (UniProt P50995) | -0.475 | 0.0156 | -0.345 | 0.0716
8 | ANKRD39 C107 (UniProt Q53RE8) | 0.631 | 0.245 | 0.503 | -0.242
9 | API5 C297 (UniProt Q9BZZ5) | -0.0828 | -0.207 | 0.12 | -0.512
10 | ANKRD40 C358 (UniProt Q6AI12) | -0.0745 | 0.223 | -0.000661 | 0.159
11 | ANKRD52 C633 (UniProt Q8NB46) | 0.327 | 0.0497 | -0.338 | -0.389
12 | AP2B1 C391 (UniProt P63010) | 0.0761 | -0.337 | -0.303 | -0.221
13 | ASB3 C274 (UniProt Q9Y575) | -0.124 | 0.178 | -0.0492 | 0.123
14 | AP1B1 C866 (UniProt Q10567) | -0.18 | -0.0589 | -0.527 | 0.141
15 | ARNT C269 (UniProt P27540) | -0.179 | 0.0264 | -0.209 | -0.0494
16 | ARFGEF1 C37 (UniProt Q9Y6D6) | -0.196 | 0.26 | -0.638 | 0.188

Laid out differently: entries from further up.
Row	Target	log2 mean competition ratio ([1]; 50 µM)	log2 mean competition ratio ([1]; 200 µM)	log2 mean competition ratio ([2]; 50 µM)	log2 mean competition ratio ([2]; 200 µM)
1	AP2B1 C129 (UniProt P63010)	0.441	0.202	0.183	0.163
2	ARMC6 C484 (UniProt Q6NXE6)	-0.0109	0.0522	0.281	0.0829
